Reference: patent US9375005B2, “5-halogenopyrazole indanyl carboxamides” (BAYER CROPSCIENCE AG, priority 2012, dated 2016)

Test: Measurement of log P values by HPLC on reversed phase columns (EEC directive 79/831 Annex V.A8)
Type: physicochemical
Details: method marked [a]

Question: For `CC1CC(C)c2c(NC(=O)c3c(C(F)F)nn(C)c3Cl)cccc21` (centres unmarked) [Example 43], which logP is on record?
Answer: 3.89[a]

Question: For `CC1CC(C)c2c(NC(=O)c3c(C(F)F)nn(C)c3Cl)cccc21` (centres unmarked) [Example 96], which logP is on record?
Answer: 3.69[a]
